From the supplement of paper PMC12067093, “Discovery and optimisation of a covalent ligand for TRIM25 and its application to targeted protein ubiquitination” (Chemical Science, 2025)
This is one part of the list.

By UniProt entry, the sequences of proteins in these tests, tags left out. Where a name states a change or a piece, a line headed by the entry shows the natural chain unless it says otherwise.
UniProt Q9Y520: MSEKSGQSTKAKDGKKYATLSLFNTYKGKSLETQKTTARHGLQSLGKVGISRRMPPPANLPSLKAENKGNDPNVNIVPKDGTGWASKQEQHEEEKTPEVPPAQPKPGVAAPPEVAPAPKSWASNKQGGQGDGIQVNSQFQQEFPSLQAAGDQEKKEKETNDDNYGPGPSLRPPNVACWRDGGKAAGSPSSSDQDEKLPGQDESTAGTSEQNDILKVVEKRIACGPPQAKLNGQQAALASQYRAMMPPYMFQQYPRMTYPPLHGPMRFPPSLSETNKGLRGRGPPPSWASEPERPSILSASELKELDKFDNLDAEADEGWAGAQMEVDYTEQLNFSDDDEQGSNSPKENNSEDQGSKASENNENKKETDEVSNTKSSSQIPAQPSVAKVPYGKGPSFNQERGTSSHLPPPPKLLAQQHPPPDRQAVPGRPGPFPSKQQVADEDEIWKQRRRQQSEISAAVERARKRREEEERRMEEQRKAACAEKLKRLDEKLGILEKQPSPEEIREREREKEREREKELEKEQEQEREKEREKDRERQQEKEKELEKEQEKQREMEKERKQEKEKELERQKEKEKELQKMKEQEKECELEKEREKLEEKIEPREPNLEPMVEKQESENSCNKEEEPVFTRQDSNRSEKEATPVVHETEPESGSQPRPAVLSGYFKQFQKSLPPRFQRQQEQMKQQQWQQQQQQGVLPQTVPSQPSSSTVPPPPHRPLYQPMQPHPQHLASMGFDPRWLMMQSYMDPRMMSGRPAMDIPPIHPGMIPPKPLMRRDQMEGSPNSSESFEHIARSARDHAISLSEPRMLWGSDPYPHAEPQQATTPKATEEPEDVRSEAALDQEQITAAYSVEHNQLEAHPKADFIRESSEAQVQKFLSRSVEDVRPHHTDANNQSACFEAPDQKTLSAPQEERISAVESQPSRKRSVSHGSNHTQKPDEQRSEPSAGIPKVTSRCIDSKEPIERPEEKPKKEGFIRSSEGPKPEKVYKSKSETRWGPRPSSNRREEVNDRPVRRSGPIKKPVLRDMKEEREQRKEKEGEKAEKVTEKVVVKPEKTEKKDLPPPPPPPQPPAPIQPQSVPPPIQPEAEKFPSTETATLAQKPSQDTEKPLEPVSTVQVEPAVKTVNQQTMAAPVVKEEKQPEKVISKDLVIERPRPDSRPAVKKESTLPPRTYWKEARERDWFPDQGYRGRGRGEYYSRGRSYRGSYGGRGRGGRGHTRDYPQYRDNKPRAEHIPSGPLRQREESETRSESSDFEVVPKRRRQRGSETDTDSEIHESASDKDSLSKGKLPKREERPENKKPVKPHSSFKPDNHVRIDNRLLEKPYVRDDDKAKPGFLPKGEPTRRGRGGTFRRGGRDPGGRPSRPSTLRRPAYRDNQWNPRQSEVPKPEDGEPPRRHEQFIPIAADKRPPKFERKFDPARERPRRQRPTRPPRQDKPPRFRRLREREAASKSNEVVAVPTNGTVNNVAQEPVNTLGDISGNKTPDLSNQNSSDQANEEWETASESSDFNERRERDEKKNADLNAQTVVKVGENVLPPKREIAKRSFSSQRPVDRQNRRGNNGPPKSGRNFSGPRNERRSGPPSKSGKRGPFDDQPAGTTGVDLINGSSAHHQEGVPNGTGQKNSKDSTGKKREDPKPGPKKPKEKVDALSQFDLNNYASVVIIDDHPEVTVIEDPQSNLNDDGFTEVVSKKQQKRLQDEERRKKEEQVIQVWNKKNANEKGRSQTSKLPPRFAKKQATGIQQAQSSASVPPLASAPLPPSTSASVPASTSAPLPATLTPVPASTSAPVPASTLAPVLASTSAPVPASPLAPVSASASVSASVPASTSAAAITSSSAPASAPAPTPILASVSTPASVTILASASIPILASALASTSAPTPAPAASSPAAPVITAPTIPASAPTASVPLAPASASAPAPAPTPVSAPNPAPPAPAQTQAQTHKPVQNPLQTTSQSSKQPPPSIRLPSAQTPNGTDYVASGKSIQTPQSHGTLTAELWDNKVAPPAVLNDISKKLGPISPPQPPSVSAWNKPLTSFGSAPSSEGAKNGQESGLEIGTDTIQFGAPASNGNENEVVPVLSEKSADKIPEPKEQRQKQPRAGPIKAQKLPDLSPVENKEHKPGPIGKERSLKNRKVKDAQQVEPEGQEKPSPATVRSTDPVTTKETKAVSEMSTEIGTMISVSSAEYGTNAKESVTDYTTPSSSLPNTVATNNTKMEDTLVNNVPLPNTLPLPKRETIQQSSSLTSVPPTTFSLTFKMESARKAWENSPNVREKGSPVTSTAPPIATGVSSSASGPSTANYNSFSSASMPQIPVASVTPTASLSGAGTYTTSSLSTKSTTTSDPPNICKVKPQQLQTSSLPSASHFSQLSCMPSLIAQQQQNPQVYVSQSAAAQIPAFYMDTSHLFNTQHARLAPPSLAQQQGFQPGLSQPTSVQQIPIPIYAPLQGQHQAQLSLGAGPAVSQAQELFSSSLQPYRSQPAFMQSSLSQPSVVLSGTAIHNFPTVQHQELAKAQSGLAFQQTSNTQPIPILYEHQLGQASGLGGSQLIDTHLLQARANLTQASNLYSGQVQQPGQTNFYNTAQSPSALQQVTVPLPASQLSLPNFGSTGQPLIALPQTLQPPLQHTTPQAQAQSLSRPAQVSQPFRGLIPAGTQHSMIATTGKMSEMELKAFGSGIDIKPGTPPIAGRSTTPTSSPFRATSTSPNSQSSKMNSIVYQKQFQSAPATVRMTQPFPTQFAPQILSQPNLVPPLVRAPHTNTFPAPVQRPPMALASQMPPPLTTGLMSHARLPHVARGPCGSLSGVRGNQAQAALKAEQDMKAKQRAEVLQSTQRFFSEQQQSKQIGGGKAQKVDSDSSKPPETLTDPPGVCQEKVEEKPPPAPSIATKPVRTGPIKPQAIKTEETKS
UniProt O60678: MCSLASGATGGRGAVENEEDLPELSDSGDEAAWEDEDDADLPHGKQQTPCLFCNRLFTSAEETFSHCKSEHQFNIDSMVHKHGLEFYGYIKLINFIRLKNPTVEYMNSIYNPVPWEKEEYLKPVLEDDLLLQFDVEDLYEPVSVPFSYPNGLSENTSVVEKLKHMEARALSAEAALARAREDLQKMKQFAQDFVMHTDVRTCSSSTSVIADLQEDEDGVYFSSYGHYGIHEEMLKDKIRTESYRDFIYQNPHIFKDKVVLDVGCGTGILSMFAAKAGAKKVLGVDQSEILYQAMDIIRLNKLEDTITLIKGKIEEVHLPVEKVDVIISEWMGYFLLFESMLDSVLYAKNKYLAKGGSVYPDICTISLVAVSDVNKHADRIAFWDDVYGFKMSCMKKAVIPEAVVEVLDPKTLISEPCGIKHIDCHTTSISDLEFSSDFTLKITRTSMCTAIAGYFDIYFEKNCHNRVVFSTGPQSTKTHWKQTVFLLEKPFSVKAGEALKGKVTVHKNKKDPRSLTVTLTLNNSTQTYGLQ
UniProt P11908: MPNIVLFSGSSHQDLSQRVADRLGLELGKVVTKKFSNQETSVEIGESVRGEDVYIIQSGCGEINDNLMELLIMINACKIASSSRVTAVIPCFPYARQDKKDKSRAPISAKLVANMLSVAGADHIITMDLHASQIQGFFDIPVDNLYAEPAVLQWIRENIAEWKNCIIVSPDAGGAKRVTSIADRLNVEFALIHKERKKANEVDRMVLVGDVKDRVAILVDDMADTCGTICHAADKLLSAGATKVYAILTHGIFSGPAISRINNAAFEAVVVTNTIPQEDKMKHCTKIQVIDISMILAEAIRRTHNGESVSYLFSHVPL
UniProt Q9NVM4: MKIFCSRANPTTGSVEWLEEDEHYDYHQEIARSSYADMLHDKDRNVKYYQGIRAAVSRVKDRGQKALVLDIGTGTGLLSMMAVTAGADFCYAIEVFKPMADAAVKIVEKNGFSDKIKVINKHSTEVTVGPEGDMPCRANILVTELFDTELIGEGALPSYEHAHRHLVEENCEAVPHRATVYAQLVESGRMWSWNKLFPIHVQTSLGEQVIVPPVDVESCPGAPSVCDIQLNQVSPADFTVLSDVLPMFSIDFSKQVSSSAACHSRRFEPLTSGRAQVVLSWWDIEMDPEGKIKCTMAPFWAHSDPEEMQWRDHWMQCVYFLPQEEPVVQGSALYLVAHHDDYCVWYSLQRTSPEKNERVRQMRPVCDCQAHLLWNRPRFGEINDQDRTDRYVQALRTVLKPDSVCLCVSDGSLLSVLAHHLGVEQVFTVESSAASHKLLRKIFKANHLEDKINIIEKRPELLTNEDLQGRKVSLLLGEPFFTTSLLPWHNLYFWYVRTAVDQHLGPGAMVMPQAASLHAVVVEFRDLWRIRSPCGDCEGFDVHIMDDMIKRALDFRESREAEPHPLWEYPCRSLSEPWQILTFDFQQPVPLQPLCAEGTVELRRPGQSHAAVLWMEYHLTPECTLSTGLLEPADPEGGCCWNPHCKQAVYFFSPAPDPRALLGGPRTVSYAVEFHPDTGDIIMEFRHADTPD
UniProt Q5THK1: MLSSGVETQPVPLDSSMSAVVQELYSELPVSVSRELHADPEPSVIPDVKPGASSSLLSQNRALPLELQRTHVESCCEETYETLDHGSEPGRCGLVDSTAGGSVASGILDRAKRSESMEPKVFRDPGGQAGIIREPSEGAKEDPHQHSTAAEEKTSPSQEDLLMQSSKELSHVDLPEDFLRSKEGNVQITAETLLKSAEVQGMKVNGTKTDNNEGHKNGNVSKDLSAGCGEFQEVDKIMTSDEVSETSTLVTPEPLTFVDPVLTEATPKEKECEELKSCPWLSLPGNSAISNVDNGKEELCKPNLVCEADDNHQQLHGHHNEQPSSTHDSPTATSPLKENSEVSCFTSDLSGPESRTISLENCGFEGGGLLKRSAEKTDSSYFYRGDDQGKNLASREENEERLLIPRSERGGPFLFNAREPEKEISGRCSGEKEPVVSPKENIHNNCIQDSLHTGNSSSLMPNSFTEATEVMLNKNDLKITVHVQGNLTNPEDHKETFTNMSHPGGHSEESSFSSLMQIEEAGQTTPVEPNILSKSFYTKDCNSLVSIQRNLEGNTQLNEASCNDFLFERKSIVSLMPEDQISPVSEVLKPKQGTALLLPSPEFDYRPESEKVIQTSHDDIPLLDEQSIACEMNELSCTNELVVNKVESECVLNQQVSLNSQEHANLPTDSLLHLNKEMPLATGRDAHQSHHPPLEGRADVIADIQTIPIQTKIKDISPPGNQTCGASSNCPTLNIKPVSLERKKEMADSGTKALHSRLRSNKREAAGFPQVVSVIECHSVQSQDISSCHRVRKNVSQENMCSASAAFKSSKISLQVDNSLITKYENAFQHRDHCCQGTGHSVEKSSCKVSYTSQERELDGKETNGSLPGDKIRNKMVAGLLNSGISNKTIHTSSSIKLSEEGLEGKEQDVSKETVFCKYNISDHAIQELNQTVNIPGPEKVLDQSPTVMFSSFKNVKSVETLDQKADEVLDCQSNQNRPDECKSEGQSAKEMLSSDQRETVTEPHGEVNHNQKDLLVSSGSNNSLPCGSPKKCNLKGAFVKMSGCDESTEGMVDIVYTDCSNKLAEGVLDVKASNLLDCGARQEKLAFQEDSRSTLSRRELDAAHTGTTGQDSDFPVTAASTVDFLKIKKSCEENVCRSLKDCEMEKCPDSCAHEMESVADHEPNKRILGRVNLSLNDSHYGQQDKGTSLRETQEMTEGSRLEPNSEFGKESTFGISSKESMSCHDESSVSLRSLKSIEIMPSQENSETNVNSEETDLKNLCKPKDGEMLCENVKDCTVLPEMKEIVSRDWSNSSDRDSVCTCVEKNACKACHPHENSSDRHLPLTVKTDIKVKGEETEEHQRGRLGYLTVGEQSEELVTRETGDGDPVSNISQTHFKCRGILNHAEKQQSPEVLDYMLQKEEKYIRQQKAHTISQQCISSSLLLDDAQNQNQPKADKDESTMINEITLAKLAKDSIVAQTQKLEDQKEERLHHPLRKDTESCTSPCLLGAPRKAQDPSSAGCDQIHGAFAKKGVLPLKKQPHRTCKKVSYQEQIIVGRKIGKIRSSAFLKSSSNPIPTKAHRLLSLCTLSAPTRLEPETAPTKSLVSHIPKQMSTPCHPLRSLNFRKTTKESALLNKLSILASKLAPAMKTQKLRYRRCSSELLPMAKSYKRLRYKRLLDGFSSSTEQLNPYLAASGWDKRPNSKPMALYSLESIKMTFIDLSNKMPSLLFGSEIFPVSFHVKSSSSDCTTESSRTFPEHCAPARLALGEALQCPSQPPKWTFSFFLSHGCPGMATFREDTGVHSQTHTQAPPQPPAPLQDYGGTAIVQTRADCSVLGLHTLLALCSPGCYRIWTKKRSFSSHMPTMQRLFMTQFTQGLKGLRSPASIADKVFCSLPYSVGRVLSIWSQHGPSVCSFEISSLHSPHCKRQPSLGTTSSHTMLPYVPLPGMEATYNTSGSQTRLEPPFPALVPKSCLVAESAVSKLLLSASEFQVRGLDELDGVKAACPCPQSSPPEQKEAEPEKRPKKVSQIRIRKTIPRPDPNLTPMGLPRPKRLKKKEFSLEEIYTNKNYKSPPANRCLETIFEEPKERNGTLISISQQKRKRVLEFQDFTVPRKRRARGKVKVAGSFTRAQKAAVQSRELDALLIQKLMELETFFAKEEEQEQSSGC

Compound: Cc1cc(ccc1-c1ccccc1)C(=O)N1CCCN(CC1)C(=O)CCl [compound 10]
Assay: probe-labelled cysteine peptide fold change vs DMSO (competition) (log2 fold change); higher = less target engagement (more negative = stronger competition)
Details: THP-1, incubation time: 4 h
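Further: competitive profiling in live THP-1 cells: cysteine peptides tagged with an iodoacetamide desthiobiotin (IA-DTB) probe, intensity after compound treatment relative to DMSO-treated cells.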

Row | Target | probe-labelled cysteine peptide fold change (10 µM) | probe-labelled cysteine peptide fold change (50 µM)
1 | PRKDC_P78527_1499+1507_QCLPSLDLSCK (UniProt P78527) | 0.0692 | -0.469
2 | PRKDC_P78527_2363_FIVCLNK (UniProt P78527) | 0.0215 | -0.0417
3 | PRKDC_P78527_2342_KNILEESLCELVAK (UniProt P78527) | -0.182 | -0.0562
4 | PRKDC_P78527_2093_HECMAPLTALVK (UniProt P78527) | -0.124 | 0.134
5 | PRKDC_P78527_1507_QCLPSLDLSCK (UniProt P78527) | 0.0976 | -1.07
6 | PRKCB_P05771_386_DVVIQDDDVECTMVEK (UniProt P05771) | 0.0259 | 0.242
7 | PRKDC_P78527_795_DILPCLDGYLK (UniProt P78527) | 0.0845 | 0.159
8 | PRMT1_Q99873_250_QLVTNACLIK (UniProt Q99873) | -0.0181 | 0.0238
9 | PRKDC_P78527_3281_DDWLVSWVQSYCR (UniProt P78527) | 0.0731 | -0.379
10 | PRPF4B_Q13523_962_DLLADLIGCQR (UniProt Q13523) | -0.126 | -0.222
11 | PRKDC_P78527_2093_EQRDPTVHDDVLELEMDELNRHECMAPLTALVK (UniProt P78527) | -0.163 | -0.293
12 | PRKCB_P05771_143+151_CVMNVPSLCGTDHTER (UniProt P05771) | -0.0695 | 0.316
13 | PRKCQ_Q04759_193_QCNAAIHK (UniProt Q04759) | -0.474 | -0.576
14 | PRRC2C_Q9Y520_223_IACGPPQAK (UniProt Q9Y520) | -0.388 | -0.405
15 | PRKCSH_P14314_39_GVSLTNHHFYDESKPFTCLDGSATIPFDQVNDDYCDCK (UniProt P14314) | -0.151 | -1.07
16 | PRPF6_O94906_430_AVECCPTSVELWLALAR (UniProt O94906) | -0.109 | 0.239
17 | PRKDC_P78527_373_GYGLFAGPCK (UniProt P78527) | -0.037 | 0.131
18 | PRMT3_O60678_363_GGSVYPDICTISLVAVSDVNK (UniProt O60678) | 0.4 | 0.31
19 | PRKCB_P05771_70+71_QGFQCQVCCFVVHK (UniProt P05771) | -0.397 | -0.496

Row | Target | probe-labelled cysteine peptide fold change (10 µM) | probe-labelled cysteine peptide fold change (50 µM)
20 | PRPS2_P11908_165_NCIIVSPDAGGAKR (UniProt P11908) | 0.121 | -0.113
21 | PRPS2_P11908_165_NCIIVSPDAGGAK (UniProt P11908) | 0.241 | 0.0546
22 | PRPF8_Q6P2Q9_2116_KFICISDLR (UniProt Q6P2Q9) | 0.0139 | 0.129
23 | PRMT9_Q6P2P2_747_VFLDLSSLPCIPLSKPVELLR (UniProt Q6P2P2) | -0.236 | 0.0688
24 | PRRC2C_Q9Y520_620_QESENSCNKEEEPVFTR (UniProt Q9Y520) | 0.0581 | -0.121
25 | PRMT7_Q9NVM4_571_EAEPHPLWEYPCR (UniProt Q9NVM4) | -0.0578 | -0.261
26 | PRR14L_Q5THK1_228_DLSAGCGEFQEVDK (UniProt Q5THK1) | -0.153 | -0.102
27 | PRPF19_Q9UMS4_351+355_VTDETSGCSLTCAQFHPDGLIFGTGTMDSQIK (UniProt Q9UMS4) | 0.125 | 0.0895
28 | PRIM2_P49643_424_GTHYQVACQK (UniProt P49643) | 0.0708 | 0.193
29 | PRMT1_Q99873-3_15_AAAEAANCIMEVSCGQAESSEK (UniProt Q99873) | 0.199 | 0.146
30 | PRPF3_O43395_37_RVLGFSEPTVVTAALNCVGK (UniProt O43395) | -0.112 | 0.0437
31 | PRXL2A_Q9BRX8_88_RPGCFLCR (UniProt Q9BRX8) | -2.04 | -2.18
32 | PRKDC_P78527_1335_CTVVVR (UniProt P78527) | 0.00715 | 0.101
33 | PRKDC_P78527_4061_KLAGANPAVITCDELLLGHEK (UniProt P78527) | -0.0739 | -0.151
34 | PRMT3_O60678_264_VVLDVGCGTGILSMFAAK (UniProt O60678) | 0.0608 | 0.0054
35 | PRKCI_P41743_507_LGCHPQTGFADIQGHPFFR (UniProt P41743) | -0.164 | 0.104
36 | PRKCA_P17252_143+151_QCVINVPSLCGMDHTEKR (UniProt P17252) | -0.112 | -0.599
37 | PRMT7_Q9NVM4_368_QMRPVCDCQAHLLWNRPR (UniProt Q9NVM4) | 0.19 | -0.0386

Part of the list above in another layout.
Row	Target	probe-labelled cysteine peptide fold change (10 µM)	probe-labelled cysteine peptide fold change (50 µM)
20	PRPS2_P11908_165_NCIIVSPDAGGAKR (UniProt P11908)	0.121	-0.113
21	PRPS2_P11908_165_NCIIVSPDAGGAK (UniProt P11908)	0.241	0.0546
22	PRPF8_Q6P2Q9_2116_KFICISDLR (UniProt Q6P2Q9)	0.0139	0.129
23	PRMT9_Q6P2P2_747_VFLDLSSLPCIPLSKPVELLR (UniProt Q6P2P2)	-0.236	0.0688
24	PRRC2C_Q9Y520_620_QESENSCNKEEEPVFTR (UniProt Q9Y520)	0.0581	-0.121
25	PRMT7_Q9NVM4_571_EAEPHPLWEYPCR (UniProt Q9NVM4)	-0.0578	-0.261
26	PRR14L_Q5THK1_228_DLSAGCGEFQEVDK (UniProt Q5THK1)	-0.153	-0.102
27	PRPF19_Q9UMS4_351+355_VTDETSGCSLTCAQFHPDGLIFGTGTMDSQIK (UniProt Q9UMS4)	0.125	0.0895
